Test results published in PMC5493759, “Neurovascular EGFL7 regulates adult neurogenesis in the subventricular zone and thereby affects olfactory perception” (Nature Communications, 2017).
No constants are given. Whether binding was seen depends on the method and setting. Binding seen in cells or lysates may run through a third protein. Some entries that bind do so weakly or less than the wild type. For some assays here: Sequences can lack the tags named with a protein. One block for each molecule: values may come before it.

Sequences of proteins named here, by UniProt entry; tags and fusion partners are left off. Residues count along the entry.
UniProt Q01705, residues 19-1725: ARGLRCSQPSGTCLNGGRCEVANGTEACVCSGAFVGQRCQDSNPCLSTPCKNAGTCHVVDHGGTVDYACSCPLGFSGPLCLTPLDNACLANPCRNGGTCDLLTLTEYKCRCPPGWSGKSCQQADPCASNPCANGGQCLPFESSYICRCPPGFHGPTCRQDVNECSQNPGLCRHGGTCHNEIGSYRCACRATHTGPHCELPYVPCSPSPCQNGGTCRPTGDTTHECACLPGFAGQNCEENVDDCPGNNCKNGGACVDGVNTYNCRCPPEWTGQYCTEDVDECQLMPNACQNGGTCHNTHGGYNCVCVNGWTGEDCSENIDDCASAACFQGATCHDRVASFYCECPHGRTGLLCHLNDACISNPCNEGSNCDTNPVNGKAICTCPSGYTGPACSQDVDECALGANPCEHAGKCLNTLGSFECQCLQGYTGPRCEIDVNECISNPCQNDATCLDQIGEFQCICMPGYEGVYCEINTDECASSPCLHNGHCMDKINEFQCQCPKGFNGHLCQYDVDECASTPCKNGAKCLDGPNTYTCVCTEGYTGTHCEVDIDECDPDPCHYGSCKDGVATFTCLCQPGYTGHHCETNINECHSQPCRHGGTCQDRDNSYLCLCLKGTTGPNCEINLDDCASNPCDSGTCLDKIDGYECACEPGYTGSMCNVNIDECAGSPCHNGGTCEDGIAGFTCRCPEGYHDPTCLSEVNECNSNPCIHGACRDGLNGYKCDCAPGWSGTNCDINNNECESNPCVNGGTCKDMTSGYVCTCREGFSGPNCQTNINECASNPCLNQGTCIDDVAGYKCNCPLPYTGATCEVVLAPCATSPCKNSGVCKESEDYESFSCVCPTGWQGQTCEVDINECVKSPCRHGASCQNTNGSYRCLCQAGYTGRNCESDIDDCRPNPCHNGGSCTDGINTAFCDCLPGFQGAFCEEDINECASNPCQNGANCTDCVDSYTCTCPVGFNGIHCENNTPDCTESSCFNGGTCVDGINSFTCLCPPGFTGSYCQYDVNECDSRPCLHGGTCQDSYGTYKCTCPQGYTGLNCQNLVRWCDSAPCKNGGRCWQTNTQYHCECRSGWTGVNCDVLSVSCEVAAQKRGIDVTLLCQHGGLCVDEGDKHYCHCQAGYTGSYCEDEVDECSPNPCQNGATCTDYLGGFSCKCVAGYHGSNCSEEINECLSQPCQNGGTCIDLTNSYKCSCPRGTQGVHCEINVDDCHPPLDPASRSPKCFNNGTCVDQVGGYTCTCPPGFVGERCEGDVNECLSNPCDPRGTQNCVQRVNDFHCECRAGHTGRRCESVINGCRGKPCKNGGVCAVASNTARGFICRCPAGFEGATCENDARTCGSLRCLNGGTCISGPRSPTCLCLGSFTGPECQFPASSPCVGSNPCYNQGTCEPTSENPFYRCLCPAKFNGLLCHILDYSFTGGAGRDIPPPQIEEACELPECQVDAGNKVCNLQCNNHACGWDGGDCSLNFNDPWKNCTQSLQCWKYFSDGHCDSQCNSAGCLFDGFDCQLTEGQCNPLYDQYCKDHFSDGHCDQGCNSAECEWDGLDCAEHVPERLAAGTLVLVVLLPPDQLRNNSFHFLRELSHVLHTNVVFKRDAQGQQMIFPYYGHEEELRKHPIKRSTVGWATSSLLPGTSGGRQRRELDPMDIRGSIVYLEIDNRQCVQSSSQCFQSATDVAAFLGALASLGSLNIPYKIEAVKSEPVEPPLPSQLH
UniProt Q9QXX0, residues 34-1218: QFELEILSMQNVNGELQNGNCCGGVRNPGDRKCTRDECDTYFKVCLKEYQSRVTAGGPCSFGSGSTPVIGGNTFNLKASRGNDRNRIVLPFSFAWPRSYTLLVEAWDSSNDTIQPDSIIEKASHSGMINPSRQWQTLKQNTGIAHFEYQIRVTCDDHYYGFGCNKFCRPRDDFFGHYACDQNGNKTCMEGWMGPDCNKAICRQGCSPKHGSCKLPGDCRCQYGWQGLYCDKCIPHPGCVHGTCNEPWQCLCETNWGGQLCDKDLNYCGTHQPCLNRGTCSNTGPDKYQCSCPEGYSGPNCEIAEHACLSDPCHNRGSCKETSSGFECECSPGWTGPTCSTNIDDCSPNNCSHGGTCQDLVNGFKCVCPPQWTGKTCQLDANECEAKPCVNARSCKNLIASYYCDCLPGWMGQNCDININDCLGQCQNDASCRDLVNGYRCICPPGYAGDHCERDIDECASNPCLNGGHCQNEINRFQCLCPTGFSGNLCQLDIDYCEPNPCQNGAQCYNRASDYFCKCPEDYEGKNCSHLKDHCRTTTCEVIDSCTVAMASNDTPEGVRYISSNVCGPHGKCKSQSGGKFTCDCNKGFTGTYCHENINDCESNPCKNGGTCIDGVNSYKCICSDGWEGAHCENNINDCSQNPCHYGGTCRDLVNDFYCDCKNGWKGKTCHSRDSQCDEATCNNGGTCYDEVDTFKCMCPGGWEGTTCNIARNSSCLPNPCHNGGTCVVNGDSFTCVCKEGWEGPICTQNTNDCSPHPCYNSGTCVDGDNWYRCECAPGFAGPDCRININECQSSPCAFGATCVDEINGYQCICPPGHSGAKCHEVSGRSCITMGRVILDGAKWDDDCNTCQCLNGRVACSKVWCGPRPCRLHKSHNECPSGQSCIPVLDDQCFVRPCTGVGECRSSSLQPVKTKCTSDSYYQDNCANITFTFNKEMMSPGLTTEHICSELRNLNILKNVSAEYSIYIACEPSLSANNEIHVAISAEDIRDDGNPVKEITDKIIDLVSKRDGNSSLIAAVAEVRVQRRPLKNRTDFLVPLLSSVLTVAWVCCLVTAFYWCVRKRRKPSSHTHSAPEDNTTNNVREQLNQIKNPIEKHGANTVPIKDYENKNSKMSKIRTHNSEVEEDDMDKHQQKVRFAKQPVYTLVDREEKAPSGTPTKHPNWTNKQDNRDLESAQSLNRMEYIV

What was measured:
[1] = target: V5-tagged Notch1 extracellular domain (UniProt Q01705); assay: co-IP; V5-tagged Notch1-ECD and Flag-tagged ligands (Jagged1 or Dll4) co-expressed in HEK293 in the absence or presence of EGFL7; quantitative western blot (Odyssey); n=3
[2] = target: V5-tagged Notch1 extracellular domain (UniProt Q01705); assay: co-IP; Flag-tagged EGFL7 co-expressed with V5-tagged Notch ECDs or Notch1-ECD deletion mutants in HEK293; lysate immunoprecipitated with Immunosorb A overnight at 4 °C; quantitative western blot (Odyssey); n=3

- binding [1]: binds
Molecule: Flag-tagged Jagged1 (from UniProt Q9QXX0 34-1218) (ligand)

- binding [2]: binds
B1: Flag-tagged EGFL7 (epidermal growth factor-like protein 7) (natural protein, UniProt Q9QXT5 22-275, looked up)
chain: EHVYRPSRRVCTVGISGGSISETFVQRVYQPYLTTCDGHRACSTYRTIYRTAYRRSPGVTPARPRYACCPGWKRTSGLPGACGAAICQPPCGNGGSCIRPGHCRCPVGWQGDTCQTDVDECSTGEASCPQRCVNTVGSYWCQGWEGQSPSADGTRCLSKEGPSPVAPNPTAGVDSMAREEVYRLQARVDVLEQKLQLVLAPLHSLASRSTEHGLQDPGSLLAHSFQQLDRIDSLSEQVSFLEEHLGSCSCKKDL
notes: epidermal growth factor-like protein 7 (EGFL7); the same molecule is used here; source: HEK293, transiently transfected, in lysate
